Here are results for one substance from patent US20070243194A1.

Amino acid sequences for entries named in this document (tags omitted). Residues count along the entry.
UniProt P27986, residues 2-724: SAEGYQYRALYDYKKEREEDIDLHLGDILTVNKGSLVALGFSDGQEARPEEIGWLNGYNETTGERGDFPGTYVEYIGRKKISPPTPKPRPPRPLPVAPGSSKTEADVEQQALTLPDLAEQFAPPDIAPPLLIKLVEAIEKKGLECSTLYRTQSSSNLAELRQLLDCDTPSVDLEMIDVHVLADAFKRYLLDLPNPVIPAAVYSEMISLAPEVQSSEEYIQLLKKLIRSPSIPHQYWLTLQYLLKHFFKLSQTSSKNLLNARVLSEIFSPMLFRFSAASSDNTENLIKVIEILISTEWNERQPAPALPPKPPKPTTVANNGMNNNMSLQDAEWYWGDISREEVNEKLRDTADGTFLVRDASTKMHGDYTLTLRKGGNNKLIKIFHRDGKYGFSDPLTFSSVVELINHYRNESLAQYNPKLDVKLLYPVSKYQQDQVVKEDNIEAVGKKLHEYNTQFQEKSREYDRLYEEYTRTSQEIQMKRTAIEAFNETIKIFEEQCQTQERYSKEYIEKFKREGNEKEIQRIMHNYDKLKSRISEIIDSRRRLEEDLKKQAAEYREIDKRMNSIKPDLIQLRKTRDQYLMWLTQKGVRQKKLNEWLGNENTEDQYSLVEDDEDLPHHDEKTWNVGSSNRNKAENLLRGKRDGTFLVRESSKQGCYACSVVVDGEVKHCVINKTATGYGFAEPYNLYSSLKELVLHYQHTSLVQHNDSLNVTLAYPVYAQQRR
UniProt P35568: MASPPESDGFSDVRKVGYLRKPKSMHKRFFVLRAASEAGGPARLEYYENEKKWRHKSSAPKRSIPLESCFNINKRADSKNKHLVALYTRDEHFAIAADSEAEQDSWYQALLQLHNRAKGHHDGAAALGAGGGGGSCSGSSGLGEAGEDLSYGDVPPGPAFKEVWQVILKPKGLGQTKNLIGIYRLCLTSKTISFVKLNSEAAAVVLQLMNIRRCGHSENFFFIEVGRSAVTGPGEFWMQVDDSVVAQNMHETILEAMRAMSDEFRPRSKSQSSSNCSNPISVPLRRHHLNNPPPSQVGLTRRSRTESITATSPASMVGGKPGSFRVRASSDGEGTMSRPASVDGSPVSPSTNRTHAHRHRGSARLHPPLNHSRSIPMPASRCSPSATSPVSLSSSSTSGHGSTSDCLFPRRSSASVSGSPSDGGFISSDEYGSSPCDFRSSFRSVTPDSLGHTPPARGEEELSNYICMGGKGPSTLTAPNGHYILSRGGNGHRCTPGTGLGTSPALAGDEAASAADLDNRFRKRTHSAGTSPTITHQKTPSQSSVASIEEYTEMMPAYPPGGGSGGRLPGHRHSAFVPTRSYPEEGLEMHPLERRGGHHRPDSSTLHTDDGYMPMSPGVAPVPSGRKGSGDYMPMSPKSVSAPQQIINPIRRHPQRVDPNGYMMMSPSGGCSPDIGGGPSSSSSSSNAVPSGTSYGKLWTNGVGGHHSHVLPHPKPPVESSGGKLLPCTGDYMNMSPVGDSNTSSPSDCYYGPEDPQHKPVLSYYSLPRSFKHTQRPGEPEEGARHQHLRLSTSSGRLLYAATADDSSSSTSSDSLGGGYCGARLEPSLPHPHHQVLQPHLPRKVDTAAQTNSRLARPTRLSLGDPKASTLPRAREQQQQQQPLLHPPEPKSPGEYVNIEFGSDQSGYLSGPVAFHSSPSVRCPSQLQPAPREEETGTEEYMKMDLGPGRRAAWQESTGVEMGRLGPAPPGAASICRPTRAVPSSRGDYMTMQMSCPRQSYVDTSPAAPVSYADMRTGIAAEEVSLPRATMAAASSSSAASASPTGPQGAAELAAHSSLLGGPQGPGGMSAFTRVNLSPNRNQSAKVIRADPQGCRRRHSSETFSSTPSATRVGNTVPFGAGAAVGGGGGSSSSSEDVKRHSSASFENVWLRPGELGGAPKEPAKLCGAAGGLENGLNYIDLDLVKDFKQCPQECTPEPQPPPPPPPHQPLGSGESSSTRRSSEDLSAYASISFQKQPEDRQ

No constants are given. Whether binding was seen depends on the method and setting. In cells and extracts the contact can be indirect. Some results given as binding are weak or reduced against the parent protein; the word gives no strength.

The target in experiment [1] is p85 regulatory subunit of PI3K (human) (UniProt P27986). The experiment in a line: co-immunoprecipitation with anti-p85, Western blot. For orientation: A western blot detects proteins with antibodies after separation by electrophoresis.
Experiment [2] has the same target. Put plainly: co-immunoprecipitation with anti-p85 antibody from cell lysates, western blot for IRS-1 and p85.

For the substance “insulin receptor substrate (IRS-1) (from UniProt P35568 1-1242)”, the binding entry in experiment [1] and in experiment [2] was “binds” in each case.
